Reference: paper PMC4357696
These are yes or no findings as the source states them, for the method shown. Some results given as binding are weak or reduced against the parent protein; the word gives no strength. Where a sequence is shown, tags or fusion partners need not be part of it.

Protein sequences, listed by entry. Tags and fused reporters are not part of them.
UniProt P15873: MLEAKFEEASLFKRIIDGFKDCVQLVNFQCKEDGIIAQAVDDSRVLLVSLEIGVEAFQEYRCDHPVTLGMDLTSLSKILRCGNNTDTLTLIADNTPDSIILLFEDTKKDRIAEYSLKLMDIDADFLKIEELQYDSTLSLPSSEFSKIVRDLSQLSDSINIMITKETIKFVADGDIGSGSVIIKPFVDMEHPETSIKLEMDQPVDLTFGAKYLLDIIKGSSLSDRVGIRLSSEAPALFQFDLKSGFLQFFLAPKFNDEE

Legend:
Assay in all cases: two-hybrid; yeast two-hybrid, Gal4 AD and BD fusions expressed from high-copy-number plasmids (2μ-based); also the Rad5 deletion constructs in pGBT9
[1] = target: T1, Rad5 N-terminal domain (1-393 a.a.), Gal4 DNA-binding domain fusion (pGBT9-rad5-1-393 a.a., p448) (budding yeast) (UniProt P32849)
T1 sequence: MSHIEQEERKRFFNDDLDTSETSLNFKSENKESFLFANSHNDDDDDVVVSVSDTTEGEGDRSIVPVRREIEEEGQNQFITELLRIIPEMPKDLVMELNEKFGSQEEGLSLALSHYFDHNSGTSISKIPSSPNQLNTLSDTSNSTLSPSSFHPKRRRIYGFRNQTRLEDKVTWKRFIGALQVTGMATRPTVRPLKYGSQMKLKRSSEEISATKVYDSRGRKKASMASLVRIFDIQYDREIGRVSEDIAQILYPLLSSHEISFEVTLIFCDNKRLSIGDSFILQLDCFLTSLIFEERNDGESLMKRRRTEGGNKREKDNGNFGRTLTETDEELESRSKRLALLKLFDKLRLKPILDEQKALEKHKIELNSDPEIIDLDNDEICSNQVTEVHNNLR

[2] = target: T2, Rad5 1-984 a.a., Gal4 DNA-binding domain fusion (pGBT9-rad5-1-984 a.a., p442) (budding yeast) (UniProt P32849)
T2 sequence: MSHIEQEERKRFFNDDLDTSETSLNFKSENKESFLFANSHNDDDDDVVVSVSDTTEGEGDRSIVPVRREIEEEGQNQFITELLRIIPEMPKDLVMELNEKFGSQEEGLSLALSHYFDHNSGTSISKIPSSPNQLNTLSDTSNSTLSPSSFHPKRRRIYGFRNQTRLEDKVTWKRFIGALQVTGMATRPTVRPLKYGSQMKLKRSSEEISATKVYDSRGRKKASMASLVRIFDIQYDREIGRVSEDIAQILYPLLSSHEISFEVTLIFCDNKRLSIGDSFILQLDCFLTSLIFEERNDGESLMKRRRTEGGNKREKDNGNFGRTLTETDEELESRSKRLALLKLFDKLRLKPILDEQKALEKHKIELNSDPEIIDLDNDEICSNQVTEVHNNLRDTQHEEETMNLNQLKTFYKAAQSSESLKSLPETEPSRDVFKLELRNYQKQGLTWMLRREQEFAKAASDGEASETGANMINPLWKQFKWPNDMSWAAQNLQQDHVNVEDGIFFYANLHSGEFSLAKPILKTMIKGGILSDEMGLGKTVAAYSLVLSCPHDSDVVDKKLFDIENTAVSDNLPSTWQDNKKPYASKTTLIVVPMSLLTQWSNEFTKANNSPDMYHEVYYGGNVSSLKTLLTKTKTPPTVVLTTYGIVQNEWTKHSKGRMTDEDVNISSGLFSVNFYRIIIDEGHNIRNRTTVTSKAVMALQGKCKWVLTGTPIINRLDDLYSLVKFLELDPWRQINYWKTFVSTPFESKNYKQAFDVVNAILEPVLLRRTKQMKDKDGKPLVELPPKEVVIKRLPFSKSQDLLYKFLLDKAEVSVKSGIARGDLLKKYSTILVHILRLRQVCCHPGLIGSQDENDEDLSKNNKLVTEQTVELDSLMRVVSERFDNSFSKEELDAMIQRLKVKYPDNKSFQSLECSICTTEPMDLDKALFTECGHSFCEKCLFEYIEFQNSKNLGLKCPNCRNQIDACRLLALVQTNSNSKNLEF

[3] = target: T3, rad5-AA (D681A, E682A), Gal4 DNA-binding domain fusion (pGBT9-rad5-AA, p404) (budding yeast) (UniProt P32849)
T3 sequence: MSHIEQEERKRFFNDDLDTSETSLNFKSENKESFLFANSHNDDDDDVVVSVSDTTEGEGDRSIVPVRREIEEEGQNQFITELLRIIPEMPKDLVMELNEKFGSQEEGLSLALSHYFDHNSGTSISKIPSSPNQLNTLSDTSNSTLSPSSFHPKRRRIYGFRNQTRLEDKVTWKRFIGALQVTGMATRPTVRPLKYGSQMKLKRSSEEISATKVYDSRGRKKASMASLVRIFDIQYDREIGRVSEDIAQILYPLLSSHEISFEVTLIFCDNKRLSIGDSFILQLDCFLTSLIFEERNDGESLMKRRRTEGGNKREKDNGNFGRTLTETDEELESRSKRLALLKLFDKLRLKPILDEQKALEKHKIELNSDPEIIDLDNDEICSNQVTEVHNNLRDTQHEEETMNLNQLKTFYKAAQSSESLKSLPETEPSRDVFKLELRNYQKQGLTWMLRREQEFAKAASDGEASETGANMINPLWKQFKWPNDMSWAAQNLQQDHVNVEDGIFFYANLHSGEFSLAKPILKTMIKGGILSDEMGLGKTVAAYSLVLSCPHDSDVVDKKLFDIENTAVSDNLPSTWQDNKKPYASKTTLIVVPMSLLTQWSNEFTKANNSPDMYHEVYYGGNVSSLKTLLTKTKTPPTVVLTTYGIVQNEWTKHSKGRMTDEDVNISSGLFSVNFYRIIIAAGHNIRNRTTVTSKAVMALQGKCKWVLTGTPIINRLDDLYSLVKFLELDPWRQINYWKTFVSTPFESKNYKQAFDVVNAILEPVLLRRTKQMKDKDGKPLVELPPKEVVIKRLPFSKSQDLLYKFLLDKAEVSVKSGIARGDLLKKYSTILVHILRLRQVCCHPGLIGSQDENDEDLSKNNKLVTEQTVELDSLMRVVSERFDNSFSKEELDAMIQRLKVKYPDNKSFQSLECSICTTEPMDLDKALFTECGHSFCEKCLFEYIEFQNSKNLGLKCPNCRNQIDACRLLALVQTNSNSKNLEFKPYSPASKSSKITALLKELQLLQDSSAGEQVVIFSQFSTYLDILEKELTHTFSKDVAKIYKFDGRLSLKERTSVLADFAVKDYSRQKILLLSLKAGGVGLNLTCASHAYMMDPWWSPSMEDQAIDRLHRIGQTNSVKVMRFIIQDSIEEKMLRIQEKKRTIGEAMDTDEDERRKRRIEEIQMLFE

Measured: binding

PCNA, Gal4 activation domain fusion (pGAD424-POL30, p343) (from UniProt P15873 1-258)
binds: all assays above
